Assay results from patent publication US20240358735A1, “THERAPEUTIC COMPOSITIONS AND RELATED METHODS” (BOYCE THOMPSON INSTITUTE FOR PLANT RESEARCH, INC., priority 2021, published 2024).

tested on: Cbr-cest-2 mutants; assay: Comparative metabolomics (HPLC-HRMS) of Cbr-cest-2 mutants versus wildtype C. briggsae (AF16); settings: abundance of the metabolite in Cbr-cest-2 mutants compared to C. briggsae wildtype (AF16)

Row | Compound | Cbr-cest-2 fold over WT (AF16), average of 4 repeats
1 | Nc1ccccc1C(=O)OC[C@H]1O[C@@H](n2ccc3ccccc32)[C@H](OC(=O)c2ccccc2N)[C@@H](CP(=O)(O)O)[C@@H]1O [iglu#74] | 4.29E−05
2 | Nc1ccccc1C(=O)O[C@@H]1O[C@H](COC(=O)c2ccccc2)[C@@H](O)[C@H](OP(=O)(O)O)[C@H]1OC(=O)c1cccnc1 [angl#28] | 0.0005889
3 | Nc1ccccc1C(=O)O[C@@H]1[C@@H](OP(=O)(O)O)[C@H](O)[C@@H](CO)O[C@H]1n1ccc2ccccc21 [iglu#401, (2R,3R,4S,5R,6R)-5-hydroxy-6-(hydroxymethyl)-2-(1H-indol-1-yl)-4-(phosphonooxy)tetrahydro-2H-pyran-3-yl 2-aminobenzoate] | 3.71E−05
4 | Nc1ccccc1C(=O)C[C@@H]1O[C@H](COC(=O)c2ccccc2)[C@@H](O)[C@H](OP(=O)(O)O)[C@H]1OC(=O)c1ccccc1 [angl#70] | 8.68E−05
5 | C[C@@H]1O[C@@H](OCCC(=O)OC[C@H]2O[C@@H](Oc3ccc(CCN)cc3)[C@H](OC(=O)c3ccccc3N)[C@@H](OP(=O)(O)O)[C@@H]2O)[C@H](O)C[C@H]1O [tyglas#5] | 0.001127
6 | CC(C)CC(=O)OC[C@H]1O[C@@H](OC(=O)c2ccccc2N)[C@H](OC(=O)c2cccnc2)[C@@H](OP(=O)(O)O)[C@@H]1O [angl#19] | 0.0004475
7 | C/C=C(\C)C(=O)OCC1OC(OC(=O)c2cccnc2)C(OC(=O)c2cccnc2)C(OP(=O)(O)O)C1O (centres unmarked) [nglu#5] | 0.004546
8 | C/C=C(\C)C(=O)OC[C@H]1O[C@@H](OC(=O)c2ccccc2)[C@H](O)[C@@H](OP(=O)(O)O)[C@@H]1O [bzglu#201] | 0.002391
9 | Nc1ccccc1C(=O)O[C@@H]1O[C@H](CO)[C@@H](O)[C@H](OP(=O)(O)O)[C@H]1OC(=O)c1ccccc1N [angl#401] | 0.0005262
10 | CCCCCCCC/C=C/C(=O)O[C@H]1[C@H](Oc2ccc(CCN)cc2)O[C@H](CO)[C@@H](O)[C@@H]1OP(=O)(O)O [tyglu#54] | 0.002112
11 | CCC(O)C(=O)OC[C@H]1O[C@@H](n2ccc3ccccc32)[C@H](OC(=O)c2ccccc2N)[C@@H](OP(=O)(O)O)[C@@H]1O (some centres unmarked) [iglu#48] | 0.002595
12 | Nc1ccccc1C(=O)C[C@@H]1O[C@H](COC(=O)c2ccc(O)cc2)[C@@H](O)[C@H](OP(=O)(O)O)[C@H]1OC(=O)c1ccc(O)cc1 [angl#47] | 0.0005489
13 | Nc1ccccc1C(=O)OCC1OC(n2ccc3ccccc32)C(OC(=O)c2ccccc2)C(OP(=O)(O)O)C1O (centres unmarked) [iglu#66] | 0.01239
14 | C/C=C(\C)C(=O)OC[C@H]1O[C@@H](OC(=O)c2ccccc2N)[C@H](OC(=O)/C(C)=C/C)[C@@H](OP(=O)(O)O)[C@@H]1O [angl#26] | 1.71E−05
15 | NCCc1ccc(O[C@@H]2O[C@H](COC(=O)Cc3ccc(O)cc3)[C@@H](O)[C@H](OP(=O)(O)O)[C@H]2OC(=O)c2ccccc2N)cc1 [tyglu#37] | 0.0002348
16 | O=C(OC[C@H]1O[C@@H](n2ccc3ccccc32)[C@H](OC(=O)c2cccnc2)[C@@H](OP(=O)(O)O)[C@@H]1O)c1cccnc1 [iglu#56] | 0.001679
17 | NCC(O)c1ccc(C[C@@H]2O[C@H](COC(=O)c3ccccc3N)[C@@H](O)[C@H](OP(=O)(O)O)[C@H]2OC(=O)c2cccnc2)cc1 (some centres unmarked) [oglu#15] | 0.003824
18 | C/C=C(\C)C(=O)OCC1OC(OC(=O)c2cccnc2)C(OC(=O)c2cccnc2)C(OP(=O)(O)O)C1O (centres unmarked) [nglu#6] | 0.01336
19 | O=C(C[C@@H]1O[C@H](COC(=O)c2cccnc2)[C@@H](O)[C@H](OP(=O)(O)O)[C@H]1OC(=O)c1cccnc1)c1ccccc1 [bzglu#6] | 0.003133
20 | Nc1ccccc1C(=O)O[C@@H]1O[C@H](COC(=O)c2cccnc2)[C@@H](O)[C@H](OP(=O)(O)O)[C@H]1OC(=O)c1ccc[nH]1 [angl#24] | 0.00008011
21 | C/C=C(\C)C(=O)O[C@H]1[C@H](Oc2ccc(CCN)cc2)O[C@H](COC(=O)c2ccc[nH]2)[C@@H](O)[C@@H]1OP(=O)(O)O [tyglu#20] | 0.0006708
22 | NCCc1ccc(O[C@@H]2O[C@H](COC(=O)c3ccc[nH]3)[C@@H](O)[C@H](OP(=O)(O)O)[C@H]2OC(=O)c2cccnc2)cc1 [tyglu#30] | 0.002985
23 | Nc1ccccc1C(=O)O[C@@H]1[C@@H](CP(=O)(O)O)[C@H](O)[C@@H](COC(=O)Cc2ccc(O)cc2)O[C@H]1n1ccc2ccccc21 [iglu#86] | 0.0003456
24 | C/C=C(\C)C(=O)OCC1OC(OC(=O)c2cccnc2)C(OC(=O)c2ccccc2)C(OP(=O)(O)O)C1O (centres unmarked) [nglu#4] | 0.007247
25 | Nc1ccccc1C(=O)OC[C@H]1O[C@@H](n2ccc3ccccc32)[C@H](OC(=O)c2ccc(O)cc2)[C@@H](CP(=O)(O)O)[C@@H]1O [iglu#75] | 0.001993

Row | Compound | Cbr-cest-2 fold over WT (AF16), average of 4 repeats
26 | NCCc1ccc(O[C@@H]2O[C@H](COC(=O)c3cccnc3)[C@@H](O)[C@H](OP(=O)(O)O)[C@H]2OC(=O)c2ccccc2)cc1 [tyglu#28] | 0.009783
27 | Nc1ccccc1C(=O)O[C@@H]1O[C@H](COC(=O)c2cccnc2)[C@@H](O)[C@H](OP(=O)(O)O)[C@H]1OC(=O)c1ccccc1 [angl#27] | 3.68E−05
28 | Nc1ccccc1C(=O)OCC1OC(n2ccc3ccccc32)C(OC(=O)Cc2ccccc2)C(OP(=O)(O)O)C1O (centres unmarked) [iglu#72] | 0.001815
29 | Nc1ccccc1C(=O)O[C@@H]1O[C@H](COC(=O)C(N)Cc2ccccc2)[C@@H](O)[C@H](OP(=O)(O)O)[C@H]1OC(=O)c1ccccc1 (some centres unmarked) [angl#38] | 0.01503
30 | Nc1ccccc1C(=O)C[C@@H]1O[C@H](COC(=O)Cc2ccc(O)cc2)[C@@H](O)[C@H](OP(=O)(O)O)[C@H]1OC(=O)c1ccccc1N [angl#50] | 0.0001897
31 | CC(C)CC(=O)OC1C(Oc2ccc(CCN)cc2)OC(COC(=O)c2ccc[nH]2)C(O)C1OP(=O)(O)O (centres unmarked) [tyglu#22] | 0.006583
32 | CC(C)CC(=O)OC[C@H]1O[C@@H](OC(=O)c2ccccc2N)[C@H](OC(=O)c2cccnc2)[C@@H](OP(=O)(O)O)[C@@H]1O [angl#21] | 0.007016
33 | C[C@H](CC(=O)OC[C@H]1O[C@@H](Oc2ccc(CCN)cc2)[C@H](OC(=O)c2ccccc2N)[C@@H](OP(=O)(O)O)[C@@H]1O)O[C@@H]1O[C@@H](C)[C@H](O)C[C@H]1O [tyglas#11] | 0.001146
34 | NCCc1ccc(O[C@@H]2O[C@H](COC(=O)c3ccccc3)[C@@H](O)[C@H](OP(=O)(O)O)[C@H]2OC(=O)c2ccccc2)cc1 [tyglu#32] | 0.001228
35 | NCCc1ccc(O[C@@H]2O[C@H](CO)[C@@H](O)[C@H](OP(=O)(O)O)[C@H]2OC(=O)c2ccc[nH]2)cc1 [tyglu#181] | 0.004887
36 | O=C(O[C@H]1[C@H](OC(=O)c2ccc[nH]2)O[C@H](CO)[C@@H](O)[C@@H]1OP(=O)(O)O)c1ccccc1 [pyglu#201] | 0.004462
37 | NCC(O)c1ccc(C[C@@H]2O[C@H](COC(=O)c3ccccc3)[C@@H](O)[C@H](OP(=O)(O)O)[C@H]2OC(=O)c2cccnc2)cc1 (some centres unmarked) [oglu#24] | 0.003362
38 | CCCCCCCC/C=C/C(=O)OC[C@H]1O[C@@H](Oc2ccc(CCN)cc2)[C@H](OC(=O)c2cccnc2)[C@@H](OP(=O)(O)O)[C@@H]1O [tyglu#56] | 0.0005263
39 | O=C(OC[C@H]1O[C@@H](n2ccc3ccccc32)[C@H](OC(=O)c2ccccc2)[C@@H](OP(=O)(O)O)[C@@H]1O)c1cccnc1 [iglu#52] | 0.00003754
40 | CCC(=O)OC1C(OP(=O)(O)O)C(O)C(COC(=O)c2cccnc2)OC1n1ccc2ccccc21 (centres unmarked) [iglu#21] | 0.00222
41 | NCCc1ccc(O[C@@H]2O[C@H](COC(=O)c3ccccc3N)[C@@H](O)[C@H](OP(=O)(O)O)[C@H]2OC(=O)c2ccccn2)cc1 [tyglu#6] | 0.00005252
42 | Nc1ccccc1C(=O)OC[C@H]1O[C@@H](OC(=O)c2ccccc2N)[C@H](OC(=O)Cc2ccccc2)[C@@H](OP(=O)(O)O)[C@@H]1O [angl#56] | 0.0004587
43 | CCCCCC(=O)CC(=O)OC[C@H]1O[C@@H](Cc2ccc(C(O)CN)cc2)[C@H](OC(=O)c2ccccc2N)[C@@H](OP(=O)(O)O)[C@@H]1O (some centres unmarked) [oglu#22] | 0.000583
44 | O=C(OC[C@H]1O[C@@H](n2ccc3cc(O)ccc32)[C@H](OC(=O)c2ccccc2)[C@@H](OP(=O)(O)O)[C@@H]1O)c1cccnc1 [higlu#3] | 0.0004773
45 | NCCc1ccc(O[C@@H]2O[C@H](COC(=O)c3ccccc3N)[C@@H](O)[C@H](OP(=O)(O)O)[C@H]2OC(=O)Cc2ccccc2)cc1 [tyglu#12] | 0.0002367
46 | C/C=C(\C)C(=O)OCC1OC(OC(=O)c2ccccc2N)C(OC(=O)CC(C)C)C(OP(=O)(O)O)C1O (centres unmarked) [angl#54] | 0.0006744
47 | Nc1ccccc1C(=O)C[C@@H]1O[C@H](COC(=O)c2ccc[nH]2)[C@@H](O)[C@H](OP(=O)(O)O)[C@H]1OC(=O)c1ccccc1N [angl#51] | 0.003943
48 | Nc1ccccc1C(=O)OC[C@H]1O[C@@H](NCCc2ccc(O)cc2)[C@H](OC(=O)c2ccccc2N)[C@@H](OP(=O)(O)O)[C@@H]1O [tyglu#4] | 0.00001992
49 | CC(C)CC(=O)OCC1OC(OC(=O)c2cccnc2)C(OC(=O)Cc2ccccc2)C(OP(=O)(O)O)C1O (centres unmarked) [nglu#10] | 0.005458
50 | Nc1ccccc1C(=O)O[C@@H]1[C@@H](OP(=O)(O)O)[C@H](O)[C@@H](COC(=O)/C=C/c2c[nH]cn2)O[C@H]1n1ccc2ccccc21 [iglu#82] | 0.001493
